PubChem BioAssay AID504793 | Drosophila RNAi Screening Center, 2011

- Purpose: 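Knock-downs allowing continued mitosis even though DNA is damaged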 (primary screen)
- Cells: Drosophila S2R+ cells
- Knock-down reagent: long dsRNA against Drosophila genes, about 0.25 µg dsRNA per well
- Duration: 4 days of dsRNA, then 4 hours of drug before read-out
- Treatment: doxorubicin 0.5 µM for 4 hours to cause double-strand breaks, in cells also given a low, harmless dose of dsRNA against nbs to sensitise the assay
- Read-out: 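Per-well count of mitotic cells stained for phospho-histone H3 after doxorubicin exposure, used as mitotic index; counts are raw and not normalised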
- Reading the numbers: mitotic cells: higher = more cells in mitosis, weaker G2 arrest
- Active means: 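a call needs confirmation in secondary tests, with other dsRNAs and a check of mitotic timing without damage, not just a high primary count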
- Meaning of the calls: active = confirmed in follow-up tests; inactive = not confirmed
The screen tested about 23,000 reagents; shown is a random part of those with a known target gene and a result. Of all reagents, 62 (0.27%) were called active. 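Calls come from follow-up tests whose scores are not deposited, so confirmed genes may have low counts here; counts are not normalised per plate.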 Raw values vary from plate to plate and are shown uncorrected. Names joined by + are all predicted targets of the reagent.

| Gene | amplicon | mitotic cells, replicate 1 | mitotic cells, replicate 2 | Outcome |
| --- | --- | --- | --- | --- |
| Ublcp1 (GeneID 42726) | DRSC14149 | 6 | – | inactive |
| Ublcp1 (GeneID 42726) | DRSC28057 | 4 | – | inactive |
| ImpL2 (GeneID 38513) | DRSC08666 | 4 | – | inactive |
| ImpL2 (GeneID 38513) | DRSC28691 | 1 | – | inactive |
| sws (GeneID 31716) | DRSC18843 | 8 | 9 | inactive |
| CG10949 (GeneID 35310) | DRSC02112 | 1 | – | inactive |
| CG10949 (GeneID 35310) | DRSC27310 | 10 | – | inactive |
| PI31 (GeneID 36277) | DRSC07306 | 9 | – | inactive |
| Obp28a (GeneID 34031) | DRSC03394 | 7 | – | inactive |
| Obp28a (GeneID 34031) | DRSC25374 | 5 | – | inactive |
| nab (GeneID 3346237) | DRSC08455 | 6 | – | inactive |
| nab (GeneID 3346237) | DRSC08456 | 4 | – | inactive |
| CR18166 (GeneID 8673968) | DRSC17260 | 1 | – | inactive |
| CR18166 (GeneID 8673968) | DRSC18147 | 7 | – | inactive |
| CR18166 (GeneID 8673968) | DRSC27717 | 5 | – | inactive |
| CG7322 (GeneID 32880) | DRSC20036 | 7 | – | inactive |
| CG7322 (GeneID 32880) | DRSC26735 | 6 | – | inactive |
| Ac13E (GeneID 32485) | DRSC19325 | 10 | – | inactive |
| Ac13E (GeneID 32485) | DRSC27333 | 3 | – | inactive |
| Slc45-1 (GeneID 39055) | DRSC10427 | 7 | – | inactive |
| Gr36b (GeneID 117487) | DRSC21637 | 2 | – | inactive |
| Gr36b (GeneID 117487) | DRSC29818 | – | – | inactive |
| CG9897 + asRNA:CR42742 | DRSC04595 | 2 | – | inactive |
| Obp56h (GeneID 37271) | DRSC06433 | 11 | – | inactive |
| Obp56h (GeneID 37271) | DRSC24257 | 6 | – | inactive |
| CG1368 (GeneID 32361) | DRSC19537 | 7 | – | inactive |
| CG1368 (GeneID 32361) | DRSC25431 | 4 | – | inactive |
| Cyp310a1 (GeneID 35115) | DRSC03301 | 5 | – | inactive |
| Cyp310a1 (GeneID 35115) | DRSC29160 | 8 | – | inactive |
| Tsp42A (GeneID 35515) | DRSC04862 | 4 | – | inactive |
| Klp54D (GeneID 47216) | DRSC07450 | 3 | – | inactive |
| CG34423 + Mthfs | DRSC04088 | 7 | – | inactive |
| betaTub56D (GeneID 37238) | DRSC07583 | 95 | – | inactive |
| betaTub56D (GeneID 37238) | DRSC23516 | 103 | – | inactive |
| ush (GeneID 33225) | DRSC00843 | 4 | – | inactive |
| ush (GeneID 33225) | DRSC26524 | 1 | – | inactive |
| CG3270 (GeneID 35575) | DRSC04988 | 6 | – | inactive |
| Ppi1 (GeneID 43581) | DRSC15421 | 5 | – | inactive |
| CG6295 (GeneID 43247) | DRSC16012 | 10 | – | inactive |
| CG6295 (GeneID 43247) | DRSC24229 | 7 | – | inactive |
| CG5418 (GeneID 34663) | DRSC02857 | 3 | – | inactive |
| CG5418 (GeneID 34663) | DRSC25643 | 9 | – | inactive |
| CG10474 (GeneID 37211) | DRSC05993 | 2 | – | inactive |
| CG4957 (GeneID 34374) | DRSC02793 | 4 | – | inactive |
| CG4957 (GeneID 34374) | DRSC29454 | 8 | – | inactive |
| jigr1 (GeneID 43093) | DRSC15233 | 13 | – | inactive |
| jigr1 (GeneID 43093) | DRSC22617 | 11 | – | inactive |
| Galphaq (GeneID 36384) | DRSC07432 | 5 | – | inactive |
| Galphaq (GeneID 36384) | DRSC25341 | 17 | – | inactive |
| VGAT (GeneID 36574) | DRSC07160 | 3 | – | inactive |
| Hip1 (GeneID 39450) | DRSC09812 | 4 | – | inactive |
| alphaKap4 (GeneID 38675) | DRSC09823 | 6 | – | inactive |
| CG30268 (GeneID 37610) | DRSC21983 | 5 | – | inactive |
| CG30440 (GeneID 35496) | DRSC04775 | 4 | – | inactive |
| CG30440 (GeneID 35496) | DRSC04845 | 3 | – | inactive |
| CG30440 (GeneID 35496) | DRSC04855 | 7 | – | inactive |
| yellow-e2 (GeneID 41652) | DRSC15169 | 7 | – | inactive |
| Nup93-1 (GeneID 32350) | DRSC19344 | 5 | – | inactive |
| Vmat (GeneID 3346192) | DRSC06961 | 3 | – | inactive |
| Vmat (GeneID 3346192) | DRSC06962 | 6 | – | inactive |
| Vmat (GeneID 3346192) | DRSC22223 | 16 | – | inactive |
| GstZ1 (GeneID 41132) | DRSC16478 | 9 | – | inactive |
| NPFR (GeneID 40754) | DRSC12173 | 14 | – | inactive |
| mEFTu1 (GeneID 44438) | DRSC06959 | 9 | – | inactive |
| mEFTu1 (GeneID 44438) | DRSC29468 | 10 | – | inactive |
| CG31650 (GeneID 326150) | DRSC03140 | 15 | – | inactive |
| CG31650 (GeneID 326150) | DRSC28972 | 4 | – | inactive |
| ey (GeneID 43812) | DRSC17173 | 10 | – | inactive |
| ey (GeneID 43812) | DRSC26309 | 13 | – | inactive |
| CG14856 (GeneID 41790) | DRSC14980 | 6 | – | inactive |
| RhoL (GeneID 41136) | DRSC16824 | 6 | – | inactive |
| RhoL (GeneID 41136) | DRSC23664 | 3 | – | inactive |
| CG12065 (GeneID 31798) | DRSC17798 | 4 | – | inactive |
| CG12065 (GeneID 31798) | DRSC17799 | 11 | – | inactive |
| CG6345 (GeneID 41271) | DRSC16024 | 5 | – | inactive |
| Ice1 (GeneID 37701) | DRSC04191 | 8 | – | inactive |
| Ice1 (GeneID 37701) | DRSC23585 | 10 | – | inactive |
| natalisin (GeneID 5740700) | DRSC14967 | 3 | – | inactive |
| natalisin (GeneID 5740700) | DRSC23390 | 6 | – | inactive |
| natalisin (GeneID 5740700) | DRSC26336 | 9 | – | inactive |
| CG32639 (GeneID 318134) | DRSC18972 | 13 | – | inactive |
| dbr (GeneID 33161) | DRSC00274 | 3 | – | inactive |
| dpr13 (GeneID 3885598) | DRSC06160 | 7 | – | inactive |
| dpr13 (GeneID 3885598) | DRSC06464 | 6 | – | inactive |
| dpr13 (GeneID 3885598) | DRSC24196 | 6 | – | inactive |
| Or42b (GeneID 35516) | DRSC04913 | 8 | – | inactive |
| Or42b (GeneID 35516) | DRSC27273 | 10 | – | inactive |
| CR31822 (GeneID 10178843) | DRSC01510 | 5 | – | inactive |
| l(3)05822 (GeneID 47260) | DRSC16202 | 5 | – | inactive |
| l(3)05822 (GeneID 47260) | DRSC24720 | 6 | – | inactive |
| Drsl6 (GeneID 38416) | DRSC08161 | 3 | – | inactive |
| E(spl)m2-BFM (GeneID 43155) | DRSC23082 | 20 | – | inactive |
| CG14551 (GeneID 43171) | DRSC14894 | 11 | – | inactive |
| CREG (GeneID 42092) | DRSC16595 | 6 | – | inactive |
| defl (GeneID 39141) | DRSC10300 | 8 | – | inactive |
| CG1677 (GeneID 31662) | DRSC18116 | 19 | – | inactive |
| CG30412 (GeneID 37691) | DRSC04564 | 6 | 4 | inactive |
| CG30412 (GeneID 37691) | DRSC25522 | 6 | – | inactive |
| Clamp (GeneID 35445) | DRSC03718 | 3 | – | inactive |
| Clamp (GeneID 35445) | DRSC21682 | 8 | – | inactive |
| Clamp (GeneID 35445) | DRSC29935 | 8 | – | inactive |
| cindr (GeneID 43654) | DRSC14126 | 4 | – | inactive |
| Cht8 (GeneID 37390) | DRSC04546 | 12 | – | inactive |
| trp (GeneID 43542) | DRSC17088 | 13 | – | inactive |
| CG2972 (GeneID 31943) | DRSC18250 | 4 | – | inactive |
| CG2972 (GeneID 31943) | DRSC30013 | 14 | – | inactive |
| aln (GeneID 2768997) | DRSC08240 | 1 | – | inactive |
| Cul1 (GeneID 35742) | DRSC07645 | 26 | – | active |
| Cul1 (GeneID 35742) | DRSC26395 | 9 | – | inactive |
| CG32576 (GeneID 318095) | DRSC19136 | 7 | – | inactive |
| Fs (GeneID 2768836) | DRSC06258 | 2 | – | inactive |
| Fs (GeneID 2768836) | DRSC06259 | 5 | – | inactive |
| Fs (GeneID 2768836) | DRSC23507 | 9 | – | inactive |
| uncNacbeta (GeneID 33232) | DRSC00326 | 1 | – | inactive |
| CG43367 + CG32252 (retired record) | DRSC21715 | 9 | – | inactive |
| DAT (GeneID 36849) | DRSC07394 | 4 | – | inactive |
| Atac1 (GeneID 33977) | DRSC03155 | 4 | – | inactive |
| Not3 (GeneID 35501) | DRSC04908 | 4 | – | inactive |
| Not3 (GeneID 35501) | DRSC27324 | 7 | – | inactive |
| regucalcin (GeneID 32165) | DRSC20366 | 17 | – | inactive |
| regucalcin (GeneID 32165) | DRSC25592 | 6 | – | inactive |
| msl-1 (GeneID 35121) | DRSC03573 | 9 | – | inactive |
| Su(z)2 (GeneID 36432) | DRSC22970 | 8 | – | inactive |
| Obp57c (GeneID 37311) | DRSC06384 | 5 | – | inactive |
| plx (GeneID 40704) | DRSC12260 | 8 | – | inactive |
| plx (GeneID 40704) | DRSC12385 | 8 | – | inactive |
| plx (GeneID 40704) | DRSC22683 | 10 | – | inactive |
| plx (GeneID 40704) | DRSC28545 | 10 | – | inactive |
| CG14131 (GeneID 39328) | DRSC10135 | 4 | – | inactive |
| CG14131 (GeneID 39328) | DRSC27727 | 3 | – | inactive |
| CG33770 (GeneID 3772256) | DRSC11717 | 10 | – | inactive |
| aPKC (GeneID 47594) | DRSC05515 | 6 | – | inactive |
| aPKC (GeneID 47594) | DRSC07639 | 9 | – | inactive |
| aPKC (GeneID 47594) | DRSC28133 | 7 | – | inactive |
| aPKC (GeneID 47594) | DRSC29936 | 19 | – | inactive |
| VAChT + ChAT | DRSC13312 | 8 | – | inactive |
| CG7049 (GeneID 38022) | DRSC08587 | 2 | – | inactive |
| CG7049 (GeneID 38022) | DRSC26356 | 5 | – | inactive |
| Acbp2 (GeneID 38784) | DRSC11141 | 8 | – | inactive |
| Acbp2 (GeneID 38784) | DRSC24352 | 12 | – | inactive |
